Test results reported in article PMC6404601.
These are yes or no findings as the source states them, for the method shown. Some binding calls cover weakened binding; strength is not graded here. Tags and fused reporters may be left off the sequences shown.

Legend:
[1] = target: T1, DBD-Rho5^K16N (LexA DNA-binding domain fusion of Rho5 K16N, with C328S) (S. cerevisiae) (UniProt P53879); assay: two-hybrid; LexA DBD fusions of Rho5 (pEG202, all with C328S) and AD-Atg21 (pJG4-5) in strain EGY48 with the LEU2 reporter; growth on SC-Gal plates lacking Leu (and Trp and His)
T1 sequence: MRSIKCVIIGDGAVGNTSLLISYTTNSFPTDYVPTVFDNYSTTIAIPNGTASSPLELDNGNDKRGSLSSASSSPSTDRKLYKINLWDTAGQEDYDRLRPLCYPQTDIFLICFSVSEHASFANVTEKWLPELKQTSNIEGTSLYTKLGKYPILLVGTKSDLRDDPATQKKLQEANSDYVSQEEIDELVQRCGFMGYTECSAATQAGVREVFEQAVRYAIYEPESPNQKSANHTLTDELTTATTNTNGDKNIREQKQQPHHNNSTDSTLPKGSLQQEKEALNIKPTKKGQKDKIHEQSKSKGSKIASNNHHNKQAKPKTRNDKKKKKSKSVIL

[2] = target: T2, DBD-Rho5^G12V (LexA DNA-binding domain fusion of Rho5 G12V, with C328S) (S. cerevisiae) (UniProt P53879); assay: as above
T2 sequence: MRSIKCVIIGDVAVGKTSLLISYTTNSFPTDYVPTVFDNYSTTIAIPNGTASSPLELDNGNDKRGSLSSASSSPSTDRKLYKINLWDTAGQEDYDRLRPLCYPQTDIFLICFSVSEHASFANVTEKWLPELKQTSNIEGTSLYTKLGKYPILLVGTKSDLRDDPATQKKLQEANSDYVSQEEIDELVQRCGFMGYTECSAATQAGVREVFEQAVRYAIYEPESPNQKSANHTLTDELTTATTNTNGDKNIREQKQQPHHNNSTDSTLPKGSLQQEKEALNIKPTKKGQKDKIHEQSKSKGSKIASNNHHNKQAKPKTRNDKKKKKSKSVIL

B1: AD-Atg21 (activation domain fusion of Atg21) (protein, UniProt Q02887 1-496)
chain: MKVLQFNQDATCCVVAASSHQISIFNCDPFGKCFEIDTKNSKKKTSNNNGSASNSESRNNEESILITNGSRDRTDAEEEEDNEDNALVTGNILKEGEFVIEMLFSTSLIAIADRGQGLNKGKKLKIVNTKRKCTICEIVFPHEIVDVVMNRKRMCVLLESDQIFIYDISCMKPLETIDLWEDHYKRSQANSFSNASNTGTLEGDSANLNRVATNLLANATQKSVNGSNPSVRTRRNSLRSKIRPRMVLSNDDRSILCFTAYSSPKKNKPNSEALYDVVIYDTLNVTPVNYLNSVHKGNVACLAVSHDGKLLATASDKGTIIRVFHTGVDSDYMSSRSLFKEFRRGTRLCNLYQLAFDKSMTMIGCVGDTDTIHLFKLDDASNSLPGDNSSNGHWNEEEYILASNSNPSMGTPKEIPLSKPRIANYFSKKIKSSIPNQNLSRNFAYITVNESNRSCLGFPDEFPNQVYIASDDGTFSIYSIPSKPGECVLTKNNKFT
**Q.** Which results are given for B1?
**A.** binding [1]: no binding; binding [2]: binds
